# Test results: the supplement of paper PMC10032668
# The list shows a part of the results. Only hits are listed; about a third recur on repeated control peptides.
# How the values were obtained:
# Experiment in all cases: PRISMA enrichment of interactor (LFQ) in peptide spot vs all other peptide spots (log2 fold change); higher = stronger / more specific binding of the interactor to the peptide
# ALDH2, P05091 = target: ALDH2, P05091
# Method: (§1)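 PRISMA: 15-aa overlapping tiles (offset 8 aa) of 60 microproteins, plus SOS1/GLUT1 control peptides, were spot-synthesized on cellulose membranes in triplicate. Membranes were incubated with benzonase-treated HEK293T lysate, and bound proteins were identified by LC-MS/MS with LFQ. Enrichment is the log2 fold change of each protein in one spot versus all other spots. Only interactors passing the significance cutoff are listed.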
# ARF5, P84085 = target: ARF5, P84085
# Method: as §1
# ATP5F1D, P30049 = target: ATP5F1D, P30049
# Method: as §1
# BOLA3, Q53S33 = target: BOLA3, Q53S33
# Method: as §1
# CARM1, Q86X55 = target: CARM1, Q86X55
# Method: as §1
# CDC45, O75419 = target: CDC45, O75419
# Method: as §1
# CIAPIN1, Q6FI81 = target: CIAPIN1, Q6FI81
# Method: as §1
# CKAP4, Q07065 = target: CKAP4, Q07065
# Method: as §1
# CKS2, P33552 = target: CKS2, P33552
# Method: as §1
# CREB1, P16220 = target: CREB1, P16220
# Method: as §1
# CRNKL1, Q9BZJ0 = target: CRNKL1, Q9BZJ0
# Method: as §1
# DHX29, Q7Z478 = target: DHX29, Q7Z478
# Method: as §1
# DNAJB11, Q9UBS4 = target: DNAJB11, Q9UBS4
# Method: as §1
# ELP1, O95163 = target: ELP1, O95163
# Method: as §1
# FAM168A, Q92567 = target: FAM168A, Q92567
# Method: as §1
# FAM98A, Q8NCA5 = target: FAM98A, Q8NCA5
# Method: as §1
# GCLM, P48507 = target: GCLM, P48507
# Method: as §1
# HMMR, O75330 = target: HMMR, O75330
# Method: as §1
# HSPA4, P34932 = target: HSPA4, P34932
# Method: as §1
# HSPH1, Q92598 = target: HSPH1, Q92598
# Method: as §1
# LETM1, O95202 = target: LETM1, O95202
# Method: as §1
# MBNL1, Q9NR56 = target: MBNL1, Q9NR56
# Method: as §1
# MCM10, Q7L590 = target: MCM10, Q7L590
# Method: as §1
# MRPL54, Q6P161 = target: MRPL54, Q6P161
# Method: as §1
# NFX1, Q12986 = target: NFX1, Q12986
# Method: as §1
# NOP56, O00567 = target: NOP56, O00567
# Method: as §1
# POU2F1, P14859 = target: POU2F1, P14859
# Method: as §1
# PPP2R1A, P30153 = target: PPP2R1A, P30153
# Method: as §1
# PRDX4, Q13162 = target: PRDX4, Q13162
# Method: as §1
# PRPF31, Q8WWY3 = target: PRPF31, Q8WWY3
# Method: as §1
# AKAP8L, Q9ULX6 = target: AKAP8L, Q9ULX6
# Method: as §1
# CTNNA1, P35221 = target: CTNNA1, P35221
# Method: as §1
# DBR1, Q9UK59 = target: DBR1, Q9UK59
# Method: as §1
# FKBP1A, P62942 = target: FKBP1A, P62942
# Method: as §1
# FLOT2, Q14254 = target: FLOT2, Q14254
# Method: as §1
# NDUFB7, P17568 = target: NDUFB7, P17568
# Method: as §1
# NUP153, P49790 = target: NUP153, P49790
# Method: as §1
# PAF1, Q8N7H5 = target: PAF1, Q8N7H5
# Method: as §1
# PDCD11, Q14690 = target: PDCD11, Q14690
# Method: as §1
# PFKL, P17858 = target: PFKL, P17858
# Method: as §1
# PUM2, Q8TB72 = target: PUM2, Q8TB72
# Method: as §1
# SPTY2D1, Q68D10 = target: SPTY2D1, Q68D10
# Method: as §1
# TCEA1, P23193 = target: TCEA1, P23193
# Method: as §1
# UBXN1, Q04323 = target: UBXN1, Q04323
# Method: as §1
binder,measurement,setting,value
QMQSAFQNVFVLHMT [RP11-432J24.5_2],PRISMA enrichment of interactor (log2),"ALDH2, P05091",4.2
same,PRISMA enrichment of interactor (log2),"ARF5, P84085",4.15
same,PRISMA enrichment of interactor (log2),"ATP5F1D, P30049",4.83
same,PRISMA enrichment of interactor (log2),"BOLA3, Q53S33",4.04
same,PRISMA enrichment of interactor (log2),"CARM1, Q86X55",4.11
same,PRISMA enrichment of interactor (log2),"CDC45, O75419",4.3
same,PRISMA enrichment of interactor (log2),"CIAPIN1, Q6FI81",6.12
same,PRISMA enrichment of interactor (log2),"CKAP4, Q07065",6.12
same,PRISMA enrichment of interactor (log2),"CKS2, P33552",4.59
same,PRISMA enrichment of interactor (log2),"CREB1, P16220",4.43
same,PRISMA enrichment of interactor (log2),"CRNKL1, Q9BZJ0",4.21
same,PRISMA enrichment of interactor (log2),"DHX29, Q7Z478",5.87
same,PRISMA enrichment of interactor (log2),"DNAJB11, Q9UBS4",4.54
same,PRISMA enrichment of interactor (log2),"ELP1, O95163",3.99
same,PRISMA enrichment of interactor (log2),"FAM168A, Q92567",4.89
same,PRISMA enrichment of interactor (log2),"FAM98A, Q8NCA5",5.15
same,PRISMA enrichment of interactor (log2),"GCLM, P48507",4.4
same,PRISMA enrichment of interactor (log2),"HMMR, O75330",5.02
same,PRISMA enrichment of interactor (log2),"HSPA4, P34932",10.6
same,PRISMA enrichment of interactor (log2),"HSPH1, Q92598",6.01
same,PRISMA enrichment of interactor (log2),"LETM1, O95202",6.2
same,PRISMA enrichment of interactor (log2),"MBNL1, Q9NR56",4.07
same,PRISMA enrichment of interactor (log2),"MCM10, Q7L590",4.59
same,PRISMA enrichment of interactor (log2),"MRPL54, Q6P161",5.15
same,PRISMA enrichment of interactor (log2),"NFX1, Q12986",6.02
same,PRISMA enrichment of interactor (log2),"NOP56, O00567",4.93
same,PRISMA enrichment of interactor (log2),"POU2F1, P14859",4.54
same,PRISMA enrichment of interactor (log2),"PPP2R1A, P30153",5.89
same,PRISMA enrichment of interactor (log2),"PRDX4, Q13162",5.89
same,PRISMA enrichment of interactor (log2),"PRPF31, Q8WWY3",4.75
RPCPLLAGRTEFWPH [RP11-644F5.11],PRISMA enrichment of interactor (log2),"AKAP8L, Q9ULX6",3.8
same,PRISMA enrichment of interactor (log2),"CTNNA1, P35221",4.65
same,PRISMA enrichment of interactor (log2),"DBR1, Q9UK59",4.48
same,PRISMA enrichment of interactor (log2),"FKBP1A, P62942",4.24
same,PRISMA enrichment of interactor (log2),"FLOT2, Q14254",4.6
same,PRISMA enrichment of interactor (log2),"NDUFB7, P17568",4.61
same,PRISMA enrichment of interactor (log2),"NUP153, P49790",5.45
same,PRISMA enrichment of interactor (log2),"PAF1, Q8N7H5",5.43
same,PRISMA enrichment of interactor (log2),"PDCD11, Q14690",6.09
same,PRISMA enrichment of interactor (log2),"PFKL, P17858",5.43
same,PRISMA enrichment of interactor (log2),"PUM2, Q8TB72",4
same,PRISMA enrichment of interactor (log2),"SPTY2D1, Q68D10",6.03
same,PRISMA enrichment of interactor (log2),"TCEA1, P23193",3.93
same,PRISMA enrichment of interactor (log2),"UBXN1, Q04323",5.85

# Fetched one by one from the entries so far:
binder,measurement,setting,value
RPCPLLAGRTEFWPH [RP11-644F5.11],PRISMA enrichment of interactor (log2),"PFKL, P17858",5.43
QMQSAFQNVFVLHMT [RP11-432J24.5_2],PRISMA enrichment of interactor (log2),"ELP1, O95163",3.99
same,PRISMA enrichment of interactor (log2),"HMMR, O75330",5.02
same,PRISMA enrichment of interactor (log2),"CREB1, P16220",4.43
